Source: PMC6925871
Construct, isoform or probe ends are uncertain for at least one entry. At least one result comes from cells or an extract, where the contact may be indirect. At least one verdict was read from the data and is not stated in words by the source. Protein sequences can lack the tags named with them.

Target: T1, CTCF (Homo sapiens) (UniProt P49711)
T1 sequence (looked up, limits assumed): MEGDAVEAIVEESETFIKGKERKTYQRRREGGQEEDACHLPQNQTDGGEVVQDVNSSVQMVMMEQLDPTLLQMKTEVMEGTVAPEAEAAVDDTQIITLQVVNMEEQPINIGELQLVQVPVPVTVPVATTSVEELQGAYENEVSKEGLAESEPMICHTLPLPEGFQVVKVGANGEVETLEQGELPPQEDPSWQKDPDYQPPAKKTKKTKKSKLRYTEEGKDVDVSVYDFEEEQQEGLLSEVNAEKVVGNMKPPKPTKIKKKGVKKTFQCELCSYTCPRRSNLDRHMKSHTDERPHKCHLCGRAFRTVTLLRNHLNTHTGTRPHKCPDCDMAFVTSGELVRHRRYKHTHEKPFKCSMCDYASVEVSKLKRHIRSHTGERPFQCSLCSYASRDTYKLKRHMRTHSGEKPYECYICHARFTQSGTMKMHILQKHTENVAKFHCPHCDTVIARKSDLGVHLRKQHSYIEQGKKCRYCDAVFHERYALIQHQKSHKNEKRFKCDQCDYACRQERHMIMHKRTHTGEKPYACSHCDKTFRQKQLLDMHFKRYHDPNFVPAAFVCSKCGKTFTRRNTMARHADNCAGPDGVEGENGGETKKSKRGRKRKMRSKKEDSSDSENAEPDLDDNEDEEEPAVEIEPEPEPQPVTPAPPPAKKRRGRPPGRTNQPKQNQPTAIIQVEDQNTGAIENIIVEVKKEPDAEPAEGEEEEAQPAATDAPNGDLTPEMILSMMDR
Assay: EMSA
Settings: 25 uM ZnSO4, 5 mM MgCl2, with and without CTCF antibody; protein in a lysate after overexpression

Sequence: ATGCGTTTCCCCGCGAGGTGGCGCTTTCTCCCC (double strand) [vCTCF-BS wild type]
- binding result: binds
